Values quoted from earlier work as cited in patent US10302625B2, “Peripheral measure of central brain inflammation, markers therefor and uses thereof” (CENTRE FOR ADDICTION AND MENTAL HEALTH, priority 2015, dated 2019).
At least one structure is not confirmed: it was looked up by name or label, or the drawing left a doubt.

Tests used:
[1] = test system: microglial activation and TSPO expression; conditions: rodents; literature refs 34, 35
[2] = test system: depressive behaviors; conditions: rodents; literature ref 36

CN(C)c1ccc(O)c2c1C[C@H]1C[C@H]3[C@H](N(C)C)C(O)=C(C(N)=O)C(=O)[C@@]3(O)C(O)=C1C2=O [minocycline]
effect on microglial activation and TSPO expression [1]: reduce microglial activation and TSPO expression
effect on depressive behaviors [2]: attenuate depressive behaviors
